Measured values: PMC7862700
Only a part is listed here, and it is no random draw. At the low end of the ranking the order means little.

Biological target: T1, ELK3 (UniProt P41970)
T1 sequence: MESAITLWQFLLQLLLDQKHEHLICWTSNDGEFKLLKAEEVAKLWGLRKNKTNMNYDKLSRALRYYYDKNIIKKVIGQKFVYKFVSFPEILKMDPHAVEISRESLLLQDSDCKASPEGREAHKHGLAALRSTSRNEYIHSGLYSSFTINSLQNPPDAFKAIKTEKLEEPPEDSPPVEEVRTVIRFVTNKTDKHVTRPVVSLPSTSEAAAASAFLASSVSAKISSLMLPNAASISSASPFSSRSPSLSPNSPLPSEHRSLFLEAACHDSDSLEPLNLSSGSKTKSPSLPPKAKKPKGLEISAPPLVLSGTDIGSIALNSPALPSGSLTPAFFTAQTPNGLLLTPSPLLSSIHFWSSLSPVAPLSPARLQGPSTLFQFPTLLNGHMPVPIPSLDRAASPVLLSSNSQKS
Experiment: DAPPL (digital affinity profiling via proximity ligation, sequencing)
Details: 10 mM Tris-HCl pH 7.5, 50 mM NaCl, 1 mM DTT, 4% glycerol, room temperature, 30 min; GST-TFs on glutathione beads, 16-mer random dsDNA library, 0.1% …; high values mean tight binding; double strand, one strand shown; scale: fold enrichment (6-mer frequency, TF over GST control)

Sequence | binding signal
GATTTT | 1.07
CGACCG | 1.21
CACACT | 1.24
CATTCC | 1.3
GTACAT | 1.44
TGTTTG | 1.29
ACGAAC | 1.13
AATCAA | 1.14
CCGATT | 1.29
TTTACG | 1.27
CGATAT | 1.06
CTTTTC | 1.23
CGAAAG | 0.963
TTAACG | 1.32
CCTGAT | 1.45
CCAATG | 1.08
TACCCT | 1.41
ATGTGT | 1.06
CTGCCG | 1.27
TACGAT | 1.09

Part of the list above in another layout.
Sequence	binding signal
GATTTT	1.07
CCGATT	1.29
CGATAT	1.06
CGAAAG	0.963
TTAACG	1.32
CCAATG	1.08
ATGTGT	1.06
TACGAT	1.09

Following part.

Sequence | binding signal
CCCCCG | 1.07
TGGTCT | 1.65
AAATTC | 1.42
TTACCC | 1.39
TTCACT | 1.37
ATCGTC | 0.996
AAGTCC | 1.27
TACGCC | 1.23
AATGCT | 1.12
TCGCCT | 1.15
CGAATA | 1.21
GTGCTT | 1.4
AAGAAT | 1.1
ATTGCG | 1.27
CGCTTC | 2.29
GTATGC | 1.13
TCTTGA | 1.29
ATCTTC | 1.59
TTCCCT | 1.8
CTCGTA | 1.36
